Measurements reported in patent US20070117743A1 (priority 2003, published 2007).

Assay: general procedure: Fmoc solid-phase peptide synthesis; chlorotrityl chloride-polystyrene resin, loading 0.5 mmol/g; DIPCDI-HOBt
[1] = whole synthesis, analytical HPLC, UV detection at 215 or 220 nm

| Substance | step yield (late stage modification step) | crude yield (whole synthesis) | isolated yield (whole synthesis) | crude HPLC purity [1] | final HPLC purity [1] |
| --- | --- | --- | --- | --- | --- |
| [Orn(N^δTfa)^8,Thr(OTfa)^12, 4(S)MeHex^14]-Kahalalide F | 20% |  |  |  |  |
| (4S)-MeHex-D-Val-Thr-Val-D-Val-D-Pro-Orn-D-allo-Ile-cyclo(D-allo-Thr-D-allo-Ile-D-Val-Phe-ZDhb-Val) |  | 77% yield | 26% yield | >95% | 92.3% |
